Measured values reported in the supplement of paper PMC10849652.
The other results are listed elsewhere or left out.

Chains of the proteins cited; added tags and fusions are not shown. Lines headed by an entry give the natural chain unless they say otherwise; changes in a name come on top.
UniProt Q9BU89: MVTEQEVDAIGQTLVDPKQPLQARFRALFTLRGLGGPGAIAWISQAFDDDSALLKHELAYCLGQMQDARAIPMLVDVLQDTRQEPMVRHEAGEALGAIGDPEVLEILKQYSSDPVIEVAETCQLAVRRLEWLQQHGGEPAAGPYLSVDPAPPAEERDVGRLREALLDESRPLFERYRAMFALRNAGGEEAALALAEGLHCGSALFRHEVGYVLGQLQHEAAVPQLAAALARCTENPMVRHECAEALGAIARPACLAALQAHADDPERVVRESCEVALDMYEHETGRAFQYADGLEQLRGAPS
UniProt Q9UNQ2: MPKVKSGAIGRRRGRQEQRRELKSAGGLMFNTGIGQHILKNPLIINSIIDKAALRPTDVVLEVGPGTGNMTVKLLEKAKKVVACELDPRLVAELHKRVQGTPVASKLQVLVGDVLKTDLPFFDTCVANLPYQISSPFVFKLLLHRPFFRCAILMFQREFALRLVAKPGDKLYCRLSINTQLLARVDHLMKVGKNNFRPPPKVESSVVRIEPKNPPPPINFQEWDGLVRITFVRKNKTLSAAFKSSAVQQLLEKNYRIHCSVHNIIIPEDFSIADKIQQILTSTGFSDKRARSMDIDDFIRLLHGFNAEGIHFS
UniProt Q9NVM6: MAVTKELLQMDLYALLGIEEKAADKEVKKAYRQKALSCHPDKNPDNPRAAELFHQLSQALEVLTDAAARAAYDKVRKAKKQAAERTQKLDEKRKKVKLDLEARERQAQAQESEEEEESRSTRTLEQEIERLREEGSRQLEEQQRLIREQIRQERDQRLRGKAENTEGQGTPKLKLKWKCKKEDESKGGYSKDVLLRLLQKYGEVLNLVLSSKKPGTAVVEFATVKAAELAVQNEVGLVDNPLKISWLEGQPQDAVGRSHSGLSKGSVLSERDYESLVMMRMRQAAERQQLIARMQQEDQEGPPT
UniProt O60610, whole entry, looked up: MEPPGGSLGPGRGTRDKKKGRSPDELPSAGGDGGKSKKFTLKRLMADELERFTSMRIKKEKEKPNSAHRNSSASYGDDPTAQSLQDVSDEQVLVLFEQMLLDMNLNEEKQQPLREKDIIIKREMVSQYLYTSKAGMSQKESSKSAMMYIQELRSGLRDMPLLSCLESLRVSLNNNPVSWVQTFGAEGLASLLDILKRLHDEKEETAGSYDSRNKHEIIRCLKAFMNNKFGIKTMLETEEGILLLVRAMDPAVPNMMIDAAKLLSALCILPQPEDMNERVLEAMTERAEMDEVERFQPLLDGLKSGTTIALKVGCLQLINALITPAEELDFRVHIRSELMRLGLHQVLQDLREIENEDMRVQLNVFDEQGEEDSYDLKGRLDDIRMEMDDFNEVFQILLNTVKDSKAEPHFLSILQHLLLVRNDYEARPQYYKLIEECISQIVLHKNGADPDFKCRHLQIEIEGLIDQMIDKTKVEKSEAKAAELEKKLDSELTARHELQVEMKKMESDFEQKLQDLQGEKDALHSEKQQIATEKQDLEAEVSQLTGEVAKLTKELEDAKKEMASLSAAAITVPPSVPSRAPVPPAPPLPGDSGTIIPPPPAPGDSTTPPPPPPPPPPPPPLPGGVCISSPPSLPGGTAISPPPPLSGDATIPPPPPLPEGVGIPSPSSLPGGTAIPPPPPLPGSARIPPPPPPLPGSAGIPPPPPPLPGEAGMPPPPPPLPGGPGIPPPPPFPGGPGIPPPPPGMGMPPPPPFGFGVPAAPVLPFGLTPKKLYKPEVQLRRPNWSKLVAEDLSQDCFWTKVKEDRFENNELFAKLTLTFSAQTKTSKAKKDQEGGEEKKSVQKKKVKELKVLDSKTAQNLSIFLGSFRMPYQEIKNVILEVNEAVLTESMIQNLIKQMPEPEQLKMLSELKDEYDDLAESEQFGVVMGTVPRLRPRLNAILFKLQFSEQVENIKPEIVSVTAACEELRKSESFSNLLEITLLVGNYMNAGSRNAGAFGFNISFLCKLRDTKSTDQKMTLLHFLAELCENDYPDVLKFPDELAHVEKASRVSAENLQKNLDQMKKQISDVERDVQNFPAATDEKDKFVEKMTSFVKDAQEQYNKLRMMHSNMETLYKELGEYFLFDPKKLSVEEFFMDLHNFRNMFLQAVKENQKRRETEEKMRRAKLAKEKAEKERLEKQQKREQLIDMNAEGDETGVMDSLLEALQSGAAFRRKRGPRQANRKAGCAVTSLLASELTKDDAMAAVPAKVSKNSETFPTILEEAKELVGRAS
UniProt Q16854: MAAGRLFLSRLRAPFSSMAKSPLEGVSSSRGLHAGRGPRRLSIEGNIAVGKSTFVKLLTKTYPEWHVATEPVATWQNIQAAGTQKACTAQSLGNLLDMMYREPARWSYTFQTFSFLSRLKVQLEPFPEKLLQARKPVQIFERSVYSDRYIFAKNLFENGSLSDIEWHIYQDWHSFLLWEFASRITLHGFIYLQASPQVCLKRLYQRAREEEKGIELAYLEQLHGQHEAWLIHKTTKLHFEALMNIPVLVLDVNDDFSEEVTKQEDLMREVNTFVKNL
UniProt O00429, whole entry, looked up: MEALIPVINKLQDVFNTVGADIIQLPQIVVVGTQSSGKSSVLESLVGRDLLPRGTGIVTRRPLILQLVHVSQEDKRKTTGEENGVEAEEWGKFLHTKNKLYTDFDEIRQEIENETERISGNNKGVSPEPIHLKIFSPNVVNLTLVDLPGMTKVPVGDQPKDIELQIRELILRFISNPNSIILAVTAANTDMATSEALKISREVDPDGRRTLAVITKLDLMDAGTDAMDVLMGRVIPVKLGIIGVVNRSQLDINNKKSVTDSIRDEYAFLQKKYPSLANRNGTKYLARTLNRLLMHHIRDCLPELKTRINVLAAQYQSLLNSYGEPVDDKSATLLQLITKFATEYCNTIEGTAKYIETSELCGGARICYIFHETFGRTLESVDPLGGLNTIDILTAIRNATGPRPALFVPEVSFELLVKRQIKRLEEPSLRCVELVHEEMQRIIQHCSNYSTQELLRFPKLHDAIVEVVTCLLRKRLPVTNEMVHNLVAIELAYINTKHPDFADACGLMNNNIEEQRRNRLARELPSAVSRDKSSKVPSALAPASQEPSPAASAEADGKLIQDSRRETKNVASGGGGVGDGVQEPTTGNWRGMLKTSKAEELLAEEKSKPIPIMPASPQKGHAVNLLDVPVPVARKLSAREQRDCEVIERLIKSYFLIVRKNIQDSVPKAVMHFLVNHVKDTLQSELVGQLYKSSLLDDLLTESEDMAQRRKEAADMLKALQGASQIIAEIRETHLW
UniProt Q68CQ4: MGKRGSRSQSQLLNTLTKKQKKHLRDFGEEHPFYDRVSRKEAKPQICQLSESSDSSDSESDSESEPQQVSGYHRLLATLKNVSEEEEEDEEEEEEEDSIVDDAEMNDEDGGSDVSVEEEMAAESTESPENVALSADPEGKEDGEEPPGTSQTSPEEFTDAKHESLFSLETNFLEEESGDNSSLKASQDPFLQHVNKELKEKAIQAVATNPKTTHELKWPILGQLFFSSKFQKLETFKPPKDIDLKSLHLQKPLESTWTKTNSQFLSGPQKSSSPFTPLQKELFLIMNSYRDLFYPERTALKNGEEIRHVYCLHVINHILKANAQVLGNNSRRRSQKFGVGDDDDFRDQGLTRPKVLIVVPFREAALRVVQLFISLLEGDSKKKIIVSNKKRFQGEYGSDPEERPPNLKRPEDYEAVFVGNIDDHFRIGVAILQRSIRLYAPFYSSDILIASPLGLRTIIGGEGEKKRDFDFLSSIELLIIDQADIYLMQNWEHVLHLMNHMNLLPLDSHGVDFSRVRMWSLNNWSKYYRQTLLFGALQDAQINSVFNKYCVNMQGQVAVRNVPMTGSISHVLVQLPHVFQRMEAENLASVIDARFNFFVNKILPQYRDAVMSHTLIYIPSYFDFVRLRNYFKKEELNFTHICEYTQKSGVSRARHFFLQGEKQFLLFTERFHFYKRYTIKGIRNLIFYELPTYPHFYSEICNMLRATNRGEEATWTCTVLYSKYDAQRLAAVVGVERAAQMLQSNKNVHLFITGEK
UniProt Q9Y2H0: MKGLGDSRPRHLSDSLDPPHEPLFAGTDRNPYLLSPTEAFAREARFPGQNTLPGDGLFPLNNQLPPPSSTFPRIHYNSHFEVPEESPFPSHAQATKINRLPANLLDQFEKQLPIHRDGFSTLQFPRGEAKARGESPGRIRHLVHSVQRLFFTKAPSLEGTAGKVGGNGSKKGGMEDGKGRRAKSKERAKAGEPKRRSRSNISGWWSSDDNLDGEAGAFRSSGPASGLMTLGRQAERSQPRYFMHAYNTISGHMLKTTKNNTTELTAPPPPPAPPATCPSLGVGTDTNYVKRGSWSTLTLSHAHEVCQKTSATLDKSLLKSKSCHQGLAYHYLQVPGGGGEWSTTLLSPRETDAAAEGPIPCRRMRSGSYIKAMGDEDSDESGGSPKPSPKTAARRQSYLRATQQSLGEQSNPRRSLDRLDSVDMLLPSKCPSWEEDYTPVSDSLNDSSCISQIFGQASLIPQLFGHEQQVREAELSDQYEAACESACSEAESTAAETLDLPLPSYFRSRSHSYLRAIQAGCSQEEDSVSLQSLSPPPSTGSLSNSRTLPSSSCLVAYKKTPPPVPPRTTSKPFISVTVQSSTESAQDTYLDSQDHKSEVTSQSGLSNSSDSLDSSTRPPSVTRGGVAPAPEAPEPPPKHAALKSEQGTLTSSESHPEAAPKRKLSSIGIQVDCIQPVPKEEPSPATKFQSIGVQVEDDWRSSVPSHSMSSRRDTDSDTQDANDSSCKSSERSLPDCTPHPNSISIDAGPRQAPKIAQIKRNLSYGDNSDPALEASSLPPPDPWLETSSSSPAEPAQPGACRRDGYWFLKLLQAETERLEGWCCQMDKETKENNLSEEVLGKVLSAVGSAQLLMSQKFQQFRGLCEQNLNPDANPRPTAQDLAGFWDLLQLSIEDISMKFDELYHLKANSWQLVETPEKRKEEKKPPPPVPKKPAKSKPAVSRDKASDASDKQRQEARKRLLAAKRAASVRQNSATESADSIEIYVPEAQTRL
UniProt Q7L2E3: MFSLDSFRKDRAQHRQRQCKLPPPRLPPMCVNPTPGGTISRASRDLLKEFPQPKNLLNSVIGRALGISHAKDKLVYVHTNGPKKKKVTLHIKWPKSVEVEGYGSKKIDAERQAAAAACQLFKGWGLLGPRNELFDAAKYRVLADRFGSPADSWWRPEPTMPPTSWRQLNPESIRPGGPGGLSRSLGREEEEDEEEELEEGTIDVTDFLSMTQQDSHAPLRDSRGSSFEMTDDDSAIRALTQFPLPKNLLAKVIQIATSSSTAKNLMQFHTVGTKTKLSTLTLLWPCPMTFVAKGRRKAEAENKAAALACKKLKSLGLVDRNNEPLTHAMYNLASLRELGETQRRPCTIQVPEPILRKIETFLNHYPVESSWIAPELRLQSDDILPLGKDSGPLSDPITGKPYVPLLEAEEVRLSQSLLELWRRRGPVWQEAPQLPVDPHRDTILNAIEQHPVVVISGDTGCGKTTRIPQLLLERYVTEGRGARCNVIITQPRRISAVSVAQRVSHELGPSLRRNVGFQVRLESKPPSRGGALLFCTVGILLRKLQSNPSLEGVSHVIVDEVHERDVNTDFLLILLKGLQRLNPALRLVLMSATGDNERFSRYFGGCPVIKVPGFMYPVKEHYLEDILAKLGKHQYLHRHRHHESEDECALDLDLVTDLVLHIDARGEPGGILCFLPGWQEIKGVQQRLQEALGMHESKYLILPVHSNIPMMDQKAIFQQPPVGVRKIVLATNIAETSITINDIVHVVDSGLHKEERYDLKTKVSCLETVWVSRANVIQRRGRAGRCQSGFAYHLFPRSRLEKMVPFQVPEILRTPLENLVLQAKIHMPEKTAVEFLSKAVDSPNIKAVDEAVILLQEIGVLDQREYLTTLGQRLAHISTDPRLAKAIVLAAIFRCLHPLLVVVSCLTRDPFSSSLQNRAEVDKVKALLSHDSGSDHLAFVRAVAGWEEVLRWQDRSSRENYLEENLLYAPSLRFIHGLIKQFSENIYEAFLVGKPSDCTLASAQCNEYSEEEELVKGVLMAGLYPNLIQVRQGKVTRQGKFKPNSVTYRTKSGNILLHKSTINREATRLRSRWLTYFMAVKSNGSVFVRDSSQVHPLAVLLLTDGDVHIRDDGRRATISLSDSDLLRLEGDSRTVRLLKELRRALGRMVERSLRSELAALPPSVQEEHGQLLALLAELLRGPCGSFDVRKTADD
UniProt Q8TBM8: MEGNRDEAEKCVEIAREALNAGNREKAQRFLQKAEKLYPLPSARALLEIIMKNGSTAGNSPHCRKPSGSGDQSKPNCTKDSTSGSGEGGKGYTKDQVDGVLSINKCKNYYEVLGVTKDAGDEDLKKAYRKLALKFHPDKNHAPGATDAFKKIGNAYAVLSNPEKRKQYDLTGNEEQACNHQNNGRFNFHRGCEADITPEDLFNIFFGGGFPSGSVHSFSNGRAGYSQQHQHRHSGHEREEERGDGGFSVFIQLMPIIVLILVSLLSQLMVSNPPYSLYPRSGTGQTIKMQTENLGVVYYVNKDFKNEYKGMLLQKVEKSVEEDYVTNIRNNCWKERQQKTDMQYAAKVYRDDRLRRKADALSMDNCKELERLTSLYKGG

What was measured:
Assay in all cases: log2 fold change, soluble protein after heating vs DMSO (PISA); higher = thermal stabilisation; K562 lysate, 10 uM; active = over 0.2 and 3.5 SD of the protein, either way, in both replicates (recomputed)
[1] = compound: CS(=O)(=O)CCNCc1ccc(-c2ccc3ncnc(Nc4ccc(OCc5cccc(F)c5)c(Cl)c4)c3c2)o1 [lapatinib]
How it was run: (§1)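 K562 pellets were dounce-homogenised in PBS pH 7.4 containing 1 mM MgCl2, and the crude extract, at 1 mg/mL protein, was exposed to 10 μM compound for 30 min. Aliquots were heated for 3 min across 48°C-58°C, pooled, brought to 0.5% NP-40 at 4°C and spun at 21,000xg for 90 min, with the supernatant taken as soluble protein. TMTpro 16plex LC-MS/MS with equalised channel sums quantified that protein. Values are log-two fold changes in thermal stability relative to solvent controls, taken from duplicates.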

[2] = compound: CS(=O)(=O)N1CCN(Cc2cc3nc(-c4cccc5[nH]ncc45)nc(N4CCOCC4)c3s2)CC1 [pictilisib]
How it was run: as §1

[3] = compound: C[C@@H](Oc1cc(-c2cnn(C3CCNCC3)c2)cnc1N)c1c(Cl)ccc(F)c1Cl [crizotinib]
How it was run: as §1

[4] = compound: C[C@H](C1=CC=C(C=C1)C(=O)NC2=C3C=CNC3=NC=C2)N
How it was run: as §1

[5] = compound: C[C@H](Nc1ncnc2nc[nH]c12)c1cc2cccc(Cl)c2c(=O)n1-c1ccccc1 [duvelisib]
How it was run: as §1

[6] = compound: Cc1cc(Nc2cc(CN3CCOCC3)c3nc(C)c(Cc4ccc(Cl)cc4F)n3n2)n[nH]1 [gandotinib]
How it was run: as §1

[7] = compound: Cc1cc(Nc2cc(N3CCN(C)CC3)nc(Sc3ccc(NC(=O)C4CC4)cc3)n2)n[nH]1 [tozasertib]
How it was run: as §1

[8] = compound: Cc1ccc(-n2nc(C(C)(C)C)cc2NC(=O)Nc2ccc(OCCN3CCOCC3)c3ccccc23)cc1 [doramapimod]
How it was run: as §1

[9] = compound: Cc1ccc(NC(=O)c2ccc(CN3CC[C@H](N(C)C)C3)c(C(F)(F)F)c2)cc1Nc1nccc(-c2cncnc2)n1 [bafetinib]
How it was run: as §1

[10] = compound: Cc1cccc(CC(=O)N2CCc3c2ccc(-c2cn(C)c4ncnc(N)c24)c3F)n1
How it was run: as §1

[11] = compound: Cc1cn(-c2cc(NC(=O)c3ccc(C)c(Nc4nccc(-c5cccnc5)n4)c3)cc(C(F)(F)F)c2)cn1 [nilotinib]
How it was run: as §1

[12] = compound: Cc1nc(Nc2n[nH]c3c2CN(C(=O)N[C@H](CN(C)C)c2ccccc2)C3(C)C)c2sccc2n1
How it was run: as §1

[13] = compound: Cc1nc(Nc2ncc(C(=O)Nc3c(C)cccc3Cl)s2)cc(N2CCN(CCO)CC2)n1 [dasatinib]
How it was run: as §1

[14] = compound: Cc1ncc(-c2ccnc(Nc3ccc(S(C)(=O)=O)cc3)n2)n1C(C)C
How it was run: as §1

[15] = compound: Cn1cc(-c2ccc3c(c2)CCN3C(=O)Cc2cccc(C(F)(F)F)c2)c2c(N)ncnc21
How it was run: as §1

[16] = compound: Cn1cc(CNCC2CCN(c3ncc(C(=O)NO)cn3)CC2)c2ccccc21 [quisinostat]
How it was run: as §1

[17] = compound: Cn1cncc1[C@@](N)(c1ccc(Cl)cc1)c1ccc2c(c1)c(-c1cccc(Cl)c1)cc(=O)n2C [tipifarnib]
How it was run: as §1

[18] = compound: NC(=O)Nc1cc(-c2cccc(F)c2)sc1C(=O)N[C@H]1CCCNC1
How it was run: as §1

[19] = compound: NC(=O)c1cnc(N[C@@H]2CCCC[C@@H]2N)nc1Nc1cccc(-n2nccn2)c1
How it was run: as §1

[20] = compound: NC1(c2ccc(-c3nc4ccn5c(=O)[nH]nc5c4cc3-c3ccccc3)cc2)CCC1
How it was run: as §1

Measured: log2 fold change

DHX15 (UniProt O43143)
inactive: [1] -0.012 | [2] -0.011 | [3] 0.046 | [4] 0.007 | [5] 0.007 | [6] -0.017 | [7] -0.001 | [8] -0.026 | [9] -0.004 | [10] -0.012 | [11] 0 | [12] -0.015 | [13] 0.015 | [14] -0.008 | [15] -0.008 | [16] 0.071 | [17] -0.006 | [18] -0.005 | [19] 0.01 | [20] -0.044

DOHH (UniProt Q9BU89)
inactive: [1] 0.071 | [2] 0.002 | [3] -0.01 | [4] 0.062 | [5] 0.014 | [6] -0.009 | [7] 0.003 | [8] 0.021 | [9] -0.051 | [10] -0.008 | [11] 0.057 | [12] -0.014 | [13] 0.04 | [14] 0.034 | [15] -0.035 | [16] -0.01 | [17] 0.008 | [18] -0.036 | [19] -0.04 | [20] -0.007

DMXL1 (UniProt Q9Y485)
inactive: [1] -0.003 | [2] -0.014 | [3] -0.021 | [4] 0.001 | [5] 0.007 | [6] -0.028 | [7] 0.002 | [8] 0.039 | [9] -0.01 | [10] 0.026 | [11] 0.03 | [12] 0.006 | [13] -0.017 | [14] -0.005 | [15] 0.025 | [16] -0.009 | [17] -0.015 | [18] 0.01 | [19] 0.014 | [20] 0.034

DIMT1 (UniProt Q9UNQ2)
inactive: [1] -0.006 | [2] -0.018 | [3] 0.046 | [4] 0.027 | [5] -0.002 | [6] -0.046 | [7] 0.025 | [8] -0.032 | [9] 0.006 | [10] -0.023 | [11] -0.04 | [12] 0.034 | [13] -0.018 | [14] -0.017 | [15] 0.017 | [16] 0.105 | [17] 0.024 | [18] 0.008 | [19] -0.003 | [20] 0.015

DNAJC17 (UniProt Q9NVM6)
inactive: [1] -0.005 | [2] 0.002 | [3] 0.022 | [4] 0.02 | [5] 0.016 | [6] 0.011 | [7] -0.032 | [8] 0.012 | [9] -0.05 | [10] 0.052 | [11] 0.023 | [12] -0.042 | [13] -0.055 | [14] -0.009 | [15] 0.042 | [16] -0.005 | [17] 0.08 | [18] -0.042 | [19] 0.037 | [20] 0.024

DIAPH1 (UniProt O60610)
inactive: [1] -0.007 | [2] 0.014 | [3] 0.004 | [4] 0.06 | [5] -0.006 | [6] -0.063 | [7] 0.004 | [8] -0.003 | [9] -0.001 | [10] -0.021 | [11] -0.003 | [12] -0.009 | [13] -0.019 | [14] -0.009 | [15] 0.006 | [16] -0.006 | [17] -0.006 | [18] -0.006 | [19] 0.002 | [20] 0.008

DGUOK (UniProt Q16854)
inactive: [1] 0.014 | [2] -0.012 | [3] 0.057 | [4] -0.022 | [5] -0.002 | [6] 0.036 | [7] 0.007 | [8] -0.068 | [9] 0.017 | [10] -0.021 | [11] 0.019 | [12] 0.01 | [13] -0.018 | [14] 0.043 | [15] -0.042 | [16] 0.024 | [17] -0.016 | [18] -0.037 | [19] -0.018 | [20] -0.027

DNPEP (UniProt Q9ULA0)
inactive: [1] -0.007 | [2] -0.017 | [3] 0.018 | [4] -0.009 | [5] 0.023 | [6] 0.021 | [7] 0.002 | [8] -0.029 | [9] -0.005 | [10] -0.031 | [11] 0.011 | [12] -0.015 | [13] 0.003 | [14] 0.001 | [15] -0.016 | [16] -0.015 | [17] -0.018 | [18] -0.003 | [19] -0.026 | [20] 0.005

DNM1L isoform 6 (UniProt O00429)
inactive: [1] -0.002 | [2] -0.015 | [3] -0.034 | [4] 0.045 | [5] 0.014 | [6] -0.097 | [7] 0.008 | [8] 0.02 | [9] -0.006 | [10] -0.01 | [11] 0 | [12] -0.001 | [13] -0.031 | [14] -0.006 | [15] 0.033 | [16] 0.019 | [17] -0.004 | [18] -0.002 | [19] 0.021 | [20] 0.009

DIEXF (UniProt Q68CQ4)
inactive: [1] -0.01 | [2] 0.006 | [3] -0.003 | [4] -0.01 | [5] 0.053 | [6] -0.048 | [7] 0.043 | [8] -0.018 | [9] -0.055 | [10] 0.016 | [11] 0.001 | [12] -0.014 | [13] -0.029 | [14] 0.104 | [15] 0.093 | [16] -0.037 | [17] -0.007 | [18] 0.096 | [19] 0.032 | [20] 0.111

DGCR8 (UniProt Q8WYQ5)
inactive: [1] -0.023 | [2] -0.048 | [3] 0.039 | [4] -0.056 | [5] -0.014 | [6] -0.032 | [7] -0.012 | [8] 0.04 | [9] -0.009 | [10] 0.044 | [11] -0.01 | [12] -0.002 | [13] -0.061 | [14] -0.029 | [15] -0.02 | [16] -0.007 | [17] 0.03 | [18] -0.032 | [19] -0.048 | [20] 0.003

DLGAP4 (UniProt Q9Y2H0)
inactive: [1] -0.002 | [2] -0.012 | [3] -0.022 | [4] -0.051 | [5] 0.015 | [6] 0.018 | [7] 0.034 | [8] -0.009 | [9] 0.029 | [10] -0.041 | [11] -0.014 | [12] 0.01 | [13] -0.009 | [14] 0.02 | [15] 0.048 | [16] -0.037 | [17] 0.05 | [18] 0.01 | [19] 0.002 | [20] -0.059

DHX30 isoform 2 (UniProt Q7L2E3)
inactive: [1] -0.015 | [2] 0.015 | [3] -0.036 | [4] 0.025 | [5] -0.034 | [6] -0.074 | [7] 0.002 | [8] 0.019 | [9] -0.017 | [10] 0.028 | [11] -0.006 | [12] 0.005 | [13] -0.008 | [14] 0.003 | [15] 0.035 | [16] -0.021 | [17] 0 | [18] 0.056 | [19] 0.007 | [20] -0.005

DNPH1 (UniProt H0Y8X4)
inactive: [1] -0.009 | [2] -0.048 | [3] 0.005 | [4] -0.024 | [5] 0.012 | [6] 0.048 | [7] -0.037 | [8] 0.026 | [9] 0.083 | [10] -0.031 | [11] 0.014 | [12] 0.033 | [13] 0.035 | [14] -0.017 | [15] -0.031 | [16] 0.033 | [17] 0.038 | [18] -0.018 | [19] -0.008 | [20] -0.012

DNAJB14 (UniProt Q8TBM8)
inactive: [1] -0.069 | [2] -0.032 | [3] -0.059 | [4] -0.008 | [5] 0.031 | [6] 0.033 | [7] 0.01 | [8] 0.078 | [9] 0.031 | [10] -0.11 | [11] 0.009 | [12] 0.068 | [13] 0.002 | [14] 0.046 | [15] -0.001 | [16] -0.065 | [17] -0.035 | [18] 0.006 | [19] 0.051 | [20] -0.042

DNAJB6 (UniProt O75190)
inactive: [1] 0.002 | [2] 0.042 | [3] -0.083 | [4] 0.01 | [5] 0.049 | [6] 0.004 | [7] 0.002 | [8] 0.01 | [9] -0.138 | [10] 0.043 | [11] -0.038 | [12] 0.032 | [13] 0.09 | [14] 0.01 | [15] -0.04 | [16] -0.162 | [17] -0.084 | [18] 0.044 | [19] 0.105 | [20] 0.018
